No constants are given. Whether binding was seen depends on the method and setting. Binding seen in cells or lysates may run through a third protein. Some binding calls cover weakened binding; strength is not graded here.
Assays:
[1] = biological target: T1, mitsugumin 53 (MG53), mouse, endogenous (mouse) (UniProt Q1XH17); assay: co-immunoprecipitation from mouse gastrocnemius skeletal muscle lysate
T1 sequence (looked up): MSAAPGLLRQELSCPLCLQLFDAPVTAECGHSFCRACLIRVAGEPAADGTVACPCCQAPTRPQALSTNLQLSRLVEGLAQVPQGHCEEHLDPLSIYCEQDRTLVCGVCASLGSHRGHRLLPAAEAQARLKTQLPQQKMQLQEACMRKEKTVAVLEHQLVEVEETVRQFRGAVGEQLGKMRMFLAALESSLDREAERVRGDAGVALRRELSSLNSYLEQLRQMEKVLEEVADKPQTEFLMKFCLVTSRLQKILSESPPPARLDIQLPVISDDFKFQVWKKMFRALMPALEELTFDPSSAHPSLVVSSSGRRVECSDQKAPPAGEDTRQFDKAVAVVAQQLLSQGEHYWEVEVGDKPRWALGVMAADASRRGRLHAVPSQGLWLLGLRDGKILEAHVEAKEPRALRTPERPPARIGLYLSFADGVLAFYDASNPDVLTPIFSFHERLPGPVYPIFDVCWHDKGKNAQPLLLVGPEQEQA

[2] = biological target: T2, caveolin-3, mouse, endogenous (mouse) (UniProt P51637); assay: co-immunoprecipitation and confocal co-staining, heart
T2 sequence (looked up): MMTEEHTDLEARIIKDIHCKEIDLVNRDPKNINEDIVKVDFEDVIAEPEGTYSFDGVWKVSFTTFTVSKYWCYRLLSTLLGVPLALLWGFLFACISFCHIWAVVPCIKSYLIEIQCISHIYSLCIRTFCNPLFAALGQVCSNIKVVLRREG

[3] = biological target: T2, caveolin-3, mouse, endogenous (mouse); assay: co-immunoprecipitation from wt mouse heart lysate
[4] = biological target: T2, caveolin-3, mouse, endogenous (mouse); assay: co-immunoprecipitation from wt mouse heart lysate (FIG. 13)

B1: caveolin-3, mouse, endogenous (protein, UniProt P51637 1-151, looked up)
chain: MMTEEHTDLEARIIKDIHCKEIDLVNRDPKNINEDIVKVDFEDVIAEPEGTYSFDGVWKVSFTTFTVSKYWCYRLLSTLLGVPLALLWGFLFACISFCHIWAVVPCIKSYLIEIQCISHIYSLCIRTFCNPLFAALGQVCSNIKVVLRREG
Which binding [1] does the source give for B1 here?
Its binding is “binds”.

B2: mitsugumin 53 (MG53), mouse, endogenous (protein, UniProt Q1XH17 1-477, looked up)
chain: MSAAPGLLRQELSCPLCLQLFDAPVTAECGHSFCRACLIRVAGEPAADGTVACPCCQAPTRPQALSTNLQLSRLVEGLAQVPQGHCEEHLDPLSIYCEQDRTLVCGVCASLGSHRGHRLLPAAEAQARLKTQLPQQKMQLQEACMRKEKTVAVLEHQLVEVEETVRQFRGAVGEQLGKMRMFLAALESSLDREAERVRGDAGVALRRELSSLNSYLEQLRQMEKVLEEVADKPQTEFLMKFCLVTSRLQKILSESPPPARLDIQLPVISDDFKFQVWKKMFRALMPALEELTFDPSSAHPSLVVSSSGRRVECSDQKAPPAGEDTRQFDKAVAVVAQQLLSQGEHYWEVEVGDKPRWALGVMAADASRRGRLHAVPSQGLWLLGLRDGKILEAHVEAKEPRALRTPERPPARIGLYLSFADGVLAFYDASNPDVLTPIFSFHERLPGPVYPIFDVCWHDKGKNAQPLLLVGPEQEQA
What does the source list for B2?
binding [2]: binds; binding [3]: binds; binding [4]: binds

— patent publication US20130123340A1
